{
  "source": "patent US8404646B2",
  "about": "“Methods for preventing or treating mitochondrial permeability transition” (Cornell Research Foundation, Inc., priority 2003, dated 2013)",
  "key": {"Sprague-Dawley rats [1]": {"tested_on": "Sprague-Dawley rats", "test": "Myocardial infarction/reperfusion, area at risk and area of infarction", "type": "in vivo, rat", "settings": "3 mg/kg IP 30 min before ligation and 5 min before reperfusion; 1 h ischemia, 1 h reperfusion", "method": "(§1) Adult male […] rats (F344 strain, National Institute of Aging, maintained by Harian Sprague-Dawley Inc.), weighting between 285 and 425 gm, were used. […]\nAfter anesthesia with ketamine (90 mg/kg IP) and xylazine (4 mg/kg IP), a tracheotomy was performed, and the rat was intubated with polyethylene tube and ventilated (Harvard Rodent Ventilator model 683) with room air and a tidal volume of 0.65 ml/100 gm of body weight at 90 breaths per minute. […] Peripheral limb electrodes were inserted subcutaneously and electrocardiogram was monitored throughout the procedure. […]\nAt the end of reperfusion, the left coronary artery was briefly re-occluded and Evans blue dye solution (2 ml of 2%, Sigma) was slowly injected into the jugular vein to distinguish the perfused area (blue staining) from the area at risk (no staining). […] After a 14-day formalin immersion, the slices were scanned again and all scanned areas were quantified with NIH Imagesoftware. […]"}, "Sprague-Dawley rats [2]": {"tested_on": "Sprague-Dawley rats", "test": "Assessment of arrhythmias in infarction/reperfusion", "type": "in vivo, rat", "settings": "3 mg/kg IP twice, entire study period", "method": "as §1\nAn ECG was recorded continuously from a standard lead II (AC AMP 700) inserted into the limbs of all rats. […] The cardiac arrhythmias were monitored and assessed in accordance with the Lambeth Convention. […] A validated score was used to quantify the severity of cardiac arrhythmias. […]\nAll values are expressed as mean±standard error of mean (S.E.M.). […] Differences among groups in body weight, heart rate, arrhythmia, area at risk as a percentage of the left ventricle, and area of infarction as a percentage of the area at risk were analyzed using ANOVA. If significant differences were detected, comparisons between the control group and the 2 treatment groups were conducted using the Mann-Whitney U-test. […]"}},
  "note": "Not every detail of the peptide structures is certain; ends, links or a residue may be inferred. Non-standard residues stand in square brackets, D forms with d. Residues, ends and D or L forms follow the SMILES beside them.",
  "data": [
    {"smiles": "N=C(N)NCCC[C@@H](NC(=O)[C@@H](N)Cc1ccccc1)C(=O)N[C@@H](Cc1ccccc1)C(=O)N[C@@H](CCCCN)C(N)=O", "note": "[SS-20, Phe-D-Arg-Phe-Lys-NH2] (H-F[dR]FK-NH2; N-terminus assumed)", "values": [
      {"measurement": "AAR/LV ratio (area at risk relative to left ventricle)", "setting": "Sprague-Dawley rats [1]", "result": "52±2.1", "unit": "%"},
      {"measurement": "AI/AAR ratio (area of infarction as percentage of area at risk)", "setting": "Sprague-Dawley rats [1]", "result": "47.1±1.4", "unit": "%"},
      {"measurement": "Severity and occurrence rate of cardiac arrhythmias (score)", "setting": "Sprague-Dawley rats [2]", "result": 3, "unit": "points"}
    ]}
  ]
}
